These results are taken from paper PMC3004790.

Protein sequences, listed by entry. Tags and fused reporters are not part of them.
UniProt Q13285: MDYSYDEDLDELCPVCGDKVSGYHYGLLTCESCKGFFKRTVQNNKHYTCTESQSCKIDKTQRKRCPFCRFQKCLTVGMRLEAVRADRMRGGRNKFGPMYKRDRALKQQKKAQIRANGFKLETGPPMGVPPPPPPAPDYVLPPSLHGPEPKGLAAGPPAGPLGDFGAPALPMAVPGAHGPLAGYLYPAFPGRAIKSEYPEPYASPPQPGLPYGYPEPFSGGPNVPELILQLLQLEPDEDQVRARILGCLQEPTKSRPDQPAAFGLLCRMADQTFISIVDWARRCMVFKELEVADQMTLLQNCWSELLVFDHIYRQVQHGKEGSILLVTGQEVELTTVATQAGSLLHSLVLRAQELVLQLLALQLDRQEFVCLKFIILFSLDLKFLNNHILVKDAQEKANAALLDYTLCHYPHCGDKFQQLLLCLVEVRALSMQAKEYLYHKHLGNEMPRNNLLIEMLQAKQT
UniProt O00482: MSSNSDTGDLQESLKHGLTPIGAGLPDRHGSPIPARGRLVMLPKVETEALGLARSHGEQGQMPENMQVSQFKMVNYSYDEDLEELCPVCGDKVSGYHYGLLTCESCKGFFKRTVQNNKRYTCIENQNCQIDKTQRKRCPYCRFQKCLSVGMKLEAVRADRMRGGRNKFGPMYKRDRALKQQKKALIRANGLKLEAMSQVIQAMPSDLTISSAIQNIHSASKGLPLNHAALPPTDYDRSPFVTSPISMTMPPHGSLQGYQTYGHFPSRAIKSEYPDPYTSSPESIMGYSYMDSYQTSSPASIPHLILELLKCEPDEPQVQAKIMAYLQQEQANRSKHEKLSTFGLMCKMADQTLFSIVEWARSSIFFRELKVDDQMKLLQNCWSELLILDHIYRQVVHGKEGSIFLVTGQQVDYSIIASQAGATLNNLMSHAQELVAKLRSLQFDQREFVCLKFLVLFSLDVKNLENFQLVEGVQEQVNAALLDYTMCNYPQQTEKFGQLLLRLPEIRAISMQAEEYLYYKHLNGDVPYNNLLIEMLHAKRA

Where a chain is given by its changes, count along the chain named. These are yes or no findings as the source states them, for the method shown. In cells and extracts the contact can be indirect. Some binding calls cover weakened binding; strength is not graded here. Tags and fused reporters may be left off the sequences shown.

Test [1] has as its target T1, FLAG-tagged FOXL2:wt (human) (UniProt P58012).
T1 sequence: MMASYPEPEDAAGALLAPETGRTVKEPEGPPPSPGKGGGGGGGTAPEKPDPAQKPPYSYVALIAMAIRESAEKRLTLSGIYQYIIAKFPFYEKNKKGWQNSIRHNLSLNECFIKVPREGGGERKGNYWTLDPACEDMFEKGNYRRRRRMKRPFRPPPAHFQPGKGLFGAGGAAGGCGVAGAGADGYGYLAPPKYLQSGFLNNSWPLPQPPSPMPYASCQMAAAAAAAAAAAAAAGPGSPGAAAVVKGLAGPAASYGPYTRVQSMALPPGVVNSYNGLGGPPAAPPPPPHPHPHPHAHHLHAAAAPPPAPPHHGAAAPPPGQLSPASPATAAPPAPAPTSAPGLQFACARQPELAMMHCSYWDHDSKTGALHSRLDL
Description: co-IP; COV434 cells 24hr after co-transfection; lysis buffer with 1% Igepal CA-630; FLAG-tagged FOXL2 precipitated with Anti-FLAG M2 Affinity Gel, beads washed three times with 20 volumes of lysis buffer; blots for SF-1 (anti-serum) and LRH-1 (ab18293); SF-1 and LRH-1 expressed alone or combined.

In test [2] the target is T2, FLAG-tagged FOXL2:C134W (human) (UniProt P58012).
T2 sequence: T1 sequence with C134W
Described as above.

Turning to “steroidogenic factor 1 (SF-1) (from UniProt Q13285 1-461)”, the binding result in test [1] and in test [2] was “binds” each time.

For “liver receptor homologue 1 (LRH-1) (from UniProt O00482 1-541)”, the binding result in test [1] and in test [2] was “binds” throughout.
